The exact form of at least one protein or probe is not confirmed. The comparison behind a weaker result is the experiment's own reference, which may not be listed here.

The values below come from doi:10.1101/108647.

The series relates to MutLγ double mutant complexes (Saccharomyces cerevisiae (S288c, SKY4158)). The series can be described thus: EMSA. The following applies: more affected than single mutants. A general note: Mobility shift assays separate free from complexed probe on a gel.

Regarding “TTTTTTTTTTTTTTTTTTTTTTTTTTTTTTTTTTTTTTTTTTTTTTTTTTTTTTTTTTTTTTTTTTTTTTTTTTTTTTTT [ssDNA80 (poly-dT, cb099)]”, the binding result is “binds more weakly”.
In the case of “CTAGTATAGAGCCGGCGCGCCATGTCTAGATAGCGTTAGGTCTGCCGAATAGTACTACTCGGATCCCGAGCGAACCACGC / GCGTGGTTCGCTCGGGATCCGAGTAGTACTATTCGGCAGAGGATTCGAATAGGCCTAATCGAATTCCGCCATCGATGCAC / GTGCATCGATGGCGGAATTCGATTAGGCCTATTCGAATCCAGACGCGAGTAGATCTTCACGGTACCCGCGGTTACCCGTG / CACGGGTAACCGCGGGTACCGTGAAGATCTACTCGCGTCTCCTAACGCTATCTAGACATGGCGCGCCGGCTCTATACTAG [HJ80 (cb095/096/097/098)]”, the binding result is “binds more weakly”.
